The source of these data is the supplement of paper PMC3334620.

In all, about 33,000 sequences were measured (“E-score (-0.5 to 0.5)”: median about -0.015, highest 2% from about 0.3 on). The list shows a part of the results.

This assay addresses T1, Abf1 (UniProt P14164).
T1 sequence: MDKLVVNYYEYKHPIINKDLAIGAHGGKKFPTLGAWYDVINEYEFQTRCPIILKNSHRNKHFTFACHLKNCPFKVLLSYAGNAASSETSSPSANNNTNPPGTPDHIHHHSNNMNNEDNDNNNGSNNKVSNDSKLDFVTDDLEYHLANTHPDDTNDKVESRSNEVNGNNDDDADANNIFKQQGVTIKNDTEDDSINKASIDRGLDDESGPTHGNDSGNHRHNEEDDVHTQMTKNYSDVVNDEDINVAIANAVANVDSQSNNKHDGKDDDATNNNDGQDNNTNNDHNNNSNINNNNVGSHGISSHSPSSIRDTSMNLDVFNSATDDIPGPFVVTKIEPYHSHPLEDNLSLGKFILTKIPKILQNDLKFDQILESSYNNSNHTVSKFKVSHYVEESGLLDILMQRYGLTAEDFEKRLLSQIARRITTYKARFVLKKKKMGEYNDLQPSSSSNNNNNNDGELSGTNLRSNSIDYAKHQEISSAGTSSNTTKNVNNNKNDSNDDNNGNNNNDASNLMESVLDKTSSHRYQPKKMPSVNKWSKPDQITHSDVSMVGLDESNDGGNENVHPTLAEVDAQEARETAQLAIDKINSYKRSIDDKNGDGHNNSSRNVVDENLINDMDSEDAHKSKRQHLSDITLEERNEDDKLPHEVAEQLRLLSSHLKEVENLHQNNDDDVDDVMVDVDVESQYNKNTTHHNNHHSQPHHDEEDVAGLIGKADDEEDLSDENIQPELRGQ
Briefly: PBM E-score (8-mer binding enrichment) (E-score (-0.5 to 0.5)); higher = stronger / more preferred TF binding. Conditions: protein concentration: 200 nM; construct: GST-full length. The method, boiled down:
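Using PURExpress in vitro transcription/translation, GST-tagged yeast transcription factors were made in full-length or DNA-binding-domain form. These were applied at about 100-200 nM to double-stranded universal all-10-mer Agilent arrays, and bound protein was detected with fluorescent anti-GST. Scans were normalised with masliner before the Universal PBM Analysis Suite assigned E-scores to ungapped eight-base words pooled with their reverse complements.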
Take ACTTATCG: the “PBM E-score” value was determined as 0.143.
In the case of CCGGTTCC it was -0.286; in that of TGCGAGAA, -0.164.
In the case of CCTACTAA it was -0.0564; in that of CCCTAACC, -0.334; in that of TATGCTGA, 0.123.
The value for ACTGCAAA was 0.108; that for CCGTGGAA was 0.127; that for CCTGGCAG was -0.147.
Regarding CACTTGTA, the “PBM E-score” value is 0.102.
In the case of GCAGTGCA it was -0.0471; in that of ACCACGGA, -0.0481.
In the case of ACTTTTCG it was 0.0723.
The value for TTAGAAAA was 0.0889.
Consider CTGAGCTA, for which the “PBM E-score” value is -0.0994.
In the case of TAACTGAA it was -0.00678; in that of ATTAACAG, 0.0654.
In the case of ATATTGTG it was 0.123.
The value for CACACAAA was -0.00629; that for GTGCGCGA was -0.0176; that for CAGTTCAC was 0.147.
For AGAGGCAC, the “PBM E-score” value was -0.23.
In the case of ATGCCACG it was -0.0938.
The value for CAGTATCA was 0.0956.
The value for GTCAGCTA was -0.148.
As to GTATGGCA, the “PBM E-score” value turned out to be 0.0908.
In the case of AAAGTGAC it was 0.343; in that of CCTAGTCA, -0.0597; in that of CTTCGAGA, -0.0943.
In the case of GTCAAAAA it was 0.239; in that of GACAGTCC, 0.0568.
As to ACGACAAG, the “PBM E-score” value came out at 0.215.
The value for GCTTGGCA was -0.098; that for TAAATATA was 0.227; that for ACTGGCCT was -0.132.
Regarding ACGGCTGG, the “PBM E-score” value was determined as 0.0869.
In the case of CGCTGATA it was -0.0858; in that of CAGAGTAG, -0.205.
In the case of ATGACATG it was 0.358; in that of AGGTACGG, -0.0413.
As for ACAGGCGG, the “PBM E-score” value was -0.0124.
In the case of GCCCACAC it was -0.116; in that of AATAGGGG, 0.00756.
Regarding CGCAGGAG, the “PBM E-score” value is -0.093.
In the case of ACGGTAGT, the “PBM E-score” value worked out at 0.234.
In the case of AAGGTGTC it was 0.0731.
The value for CTATGCTC was -0.192; that for ATTAGGGA was -0.0627; that for AAACGCTG was -0.124.
Take AGAAAGAT: the “PBM E-score” value was determined as 0.15.
The value for CTTCCTTC was -0.315; that for CATACTTC was 0.123.
GTAACCAC: the “PBM E-score” value is -0.138.
In the case of TGCGGCAA it was -0.0355; in that of ATATGTAG, -0.00956.
In the case of AAAACACG it was 0.0959; in that of CCAGCGGG, -0.213.
Turning to GCTGGCTA, the “PBM E-score” value was -0.288.
In the case of AGCTTAAC, the “PBM E-score” value is -0.101.
For AGTTTTCC, the “PBM E-score” value is -0.0477.
On to GCAGTAAA, for which the “PBM E-score” value was -0.0961.
On to ATGCAGAA, for which the “PBM E-score” value came to 0.0271.
In the case of CGAATACA it was 0.00511.
For the sequence CCTTCTAA, the “PBM E-score” value is -0.103.
Regarding ATATCATG, the “PBM E-score” value was 0.297.
The value for ATTATTAC was 0.112; that for CATGAATG was 0.0163.
In the case of ATGTGCAG it was -0.316; in that of CCTAGGGC, -0.229.
The value for CGTGGGCC was -0.0349; that for AGCAAAAT was 0.101; that for CTGGACGA was 0.211.
For the sequence CGGAACAA, the “PBM E-score” value amounted to 0.0683.
For the sequence AAAACGGC, the “PBM E-score” value is 0.101.
In the case of CGGTCTTA it was -0.228; in that of AATGTTAC, 0.0858.
The value for AGTCGGTC was -0.242; that for GTCACGAA was 0.402; that for CGGACAAA was -0.0756.
In the case of CACATACC it was -0.0269; in that of GGTGGCGA, 0.0562.
For GAACTTAC, the “PBM E-score” value came out at 0.0577.
In the case of AGCTTCTC it was -0.11; in that of ATACCTGG, -0.0475; in that of CGATGTGA, 0.181.
The value for CGAAGACG was -0.0838; that for AACGTTGT was 0.0987; that for TCCAAACA was -0.0574.
Regarding GACAAGAC, the “PBM E-score” value is 0.134.
As to CGCTTTTC, the “PBM E-score” value is -0.0402.
In the case of CAGTGAGA it was 0.0837; in that of TAAGATAA, 0.00285; in that of CTGTTGTC, -0.062.
The value for AATCAGCC was -0.191.
Turning to TTCTTCAA, the “PBM E-score” value turned out to be 0.0319.
In the case of CTCTGGCA it was -0.104; in that of CTTTTACC, -0.0639.
In the case of GTTTATGA it was 0.11; in that of CGTCTTAA, 0.232.
The value for AGGGTACA was 0.0602; that for ACAGGGTC was -0.361; that for ATCTTGAA was 0.163.
As for AGTGCCGA, the “PBM E-score” value was determined as 0.00668.
In the case of GAGATAGC it was 0.0834; in that of GAACTTCA, -0.174.
The value for GGTGTCAA was -0.252; that for CGCCTCAC was -0.00998; that for GCTAAAAC was -0.0678.
With CCCGCTAG, the “PBM E-score” value was -0.157.
The value for CAGAGTTC was -0.228.
